# Data from the supplement of paper PMC12823440, “Inhibitors supercharge kinase turnover through native proteolytic circuits” (Nature, 2025).
# The chains behind the UniProt entries cited, without tags or fusion partners. Where a name states a change or a piece, a line headed by the entry shows the natural chain unless it says otherwise.
# UniProt Q9UM73: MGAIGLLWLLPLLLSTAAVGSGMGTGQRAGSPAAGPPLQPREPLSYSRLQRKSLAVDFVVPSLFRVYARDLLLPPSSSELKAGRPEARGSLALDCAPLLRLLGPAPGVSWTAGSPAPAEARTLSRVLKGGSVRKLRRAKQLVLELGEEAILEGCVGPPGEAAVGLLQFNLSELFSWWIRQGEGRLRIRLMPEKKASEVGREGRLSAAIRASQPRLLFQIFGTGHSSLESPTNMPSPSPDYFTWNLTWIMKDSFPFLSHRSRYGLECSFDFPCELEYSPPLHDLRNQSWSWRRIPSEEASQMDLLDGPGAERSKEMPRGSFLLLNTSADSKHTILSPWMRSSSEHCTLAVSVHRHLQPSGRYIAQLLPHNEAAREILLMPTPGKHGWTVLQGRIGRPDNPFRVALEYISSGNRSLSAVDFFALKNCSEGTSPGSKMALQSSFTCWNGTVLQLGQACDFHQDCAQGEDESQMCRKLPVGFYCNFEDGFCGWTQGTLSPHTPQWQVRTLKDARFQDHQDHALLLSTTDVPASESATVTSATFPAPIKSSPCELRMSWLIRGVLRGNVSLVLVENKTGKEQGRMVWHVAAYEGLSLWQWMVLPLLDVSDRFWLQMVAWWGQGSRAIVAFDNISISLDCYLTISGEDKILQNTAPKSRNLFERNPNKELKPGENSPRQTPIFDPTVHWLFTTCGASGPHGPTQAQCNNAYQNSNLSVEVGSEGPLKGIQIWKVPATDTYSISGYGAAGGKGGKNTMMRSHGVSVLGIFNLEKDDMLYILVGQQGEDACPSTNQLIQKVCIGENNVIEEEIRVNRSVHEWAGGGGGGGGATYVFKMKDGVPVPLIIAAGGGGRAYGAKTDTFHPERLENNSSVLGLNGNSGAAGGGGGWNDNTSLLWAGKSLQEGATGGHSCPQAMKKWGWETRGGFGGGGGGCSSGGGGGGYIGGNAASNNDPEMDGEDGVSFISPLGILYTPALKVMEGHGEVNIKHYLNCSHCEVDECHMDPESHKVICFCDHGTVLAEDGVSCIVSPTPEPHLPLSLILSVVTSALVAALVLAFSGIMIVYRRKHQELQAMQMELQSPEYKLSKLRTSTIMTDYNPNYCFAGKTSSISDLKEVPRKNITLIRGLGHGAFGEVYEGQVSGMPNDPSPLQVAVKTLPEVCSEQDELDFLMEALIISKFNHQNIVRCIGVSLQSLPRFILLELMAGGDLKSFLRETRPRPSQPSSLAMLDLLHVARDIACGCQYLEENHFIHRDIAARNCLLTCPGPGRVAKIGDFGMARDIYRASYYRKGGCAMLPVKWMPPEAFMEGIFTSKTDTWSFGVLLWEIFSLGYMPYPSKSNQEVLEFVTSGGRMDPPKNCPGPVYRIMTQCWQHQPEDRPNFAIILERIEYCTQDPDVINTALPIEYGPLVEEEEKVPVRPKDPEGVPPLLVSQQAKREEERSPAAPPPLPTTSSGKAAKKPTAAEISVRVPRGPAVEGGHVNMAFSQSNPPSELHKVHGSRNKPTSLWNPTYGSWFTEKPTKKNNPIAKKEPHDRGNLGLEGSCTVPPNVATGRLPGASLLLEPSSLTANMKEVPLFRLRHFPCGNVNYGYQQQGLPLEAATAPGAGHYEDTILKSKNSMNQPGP
# Counter-ions that a name gives are not always drawn. The list shows a part of the results. The calls rarely recur for the same compound in another form.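 Kinases, fused to nanoluciferase, were expressed in K562 cells; luminescence was measured every 4 h from 2 to 18 h as percent of control (DMSO = 100%, positive control = 0%). A time point is decreased if signal falls significantly (2 sigma). Hits were called by the authors by a rule that is not shown; the count of time points alone does not decide it.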
# Target: ALK (UniProt Q9UM73)
# Assay: number of time points (of 5) at which kinase-Nluc abundance scored as decreased, DMSO-normalised (count); higher = more persistent destabilization
# Conditions: K562; 2-18 h
row,Structure (SMILES),number of time points
1,NCc1ccc(Nc2ncc(F)c(Nc3ccccc3)n2)cc1 (10 µM),0
2,C=C(C)C(=O)Nc1cccc(-c2ncnc3[nH]cc(C(=O)OCC)c23)c1 (10 µM),0
3,CCOc1cc(C(=O)N2CCC(N3CCN(C)CC3)CC2)ccc1Nc1ncc2c(n1)N(C1CCCC1)c1ccccc1C(=O)N2C (10 µM),0
4,CCOc1ccc(C(=O)Nc2ncc([N+](=O)[O-])s2)cc1 (10 µM),0
5,CNC(=O)Nc1ccc(-c2cc(-c3ccnc(Nc4ccc(C)c(S(=O)(=O)N(C)C)c4)n3)ccn2)cc1 [hSMG-1 inhibitor 11e] (2.5 µM),0
6,CNC(=O)c1ccc(-c2cnc3cnc(C(=O)N(C)c4ccc(Cl)cc4)cn23)cc1 (2.5 µM),0
7,COc1cccc(-n2c(=O)[nH]c3cc(Cl)n(-c4ccc(-c5cccc(OC)c5O)cc4)c3c2=O)c1 (2.5 µM),0
8,O=C(Nc1cccnc1)c1cc(C(=O)c2c(F)cccc2Br)c[nH]1 (10 µM),0
9,CN(CC(=O)N(Cc1ccc(C2CCCCC2)cc1)c1ccc(C(=O)O)cc1)S(=O)(=O)c1c(F)c(F)c(F)c(F)c1F (2.5 µM),0
10,COc1c(NC(=O)C(=O)c2ccc(OCCN3CCOCC3)c3ccccc23)cc(C(C)(C)C)cc1NS(C)(=O)=O (2.5 µM),0
11,CC(C)CC1(O)CCN(C(=O)c2ccc(NS(=O)(=O)c3cccc4nccnc34)cc2)CC1 (10 µM),0
12,O=C(/C=C/c1ccc(O)c(O)c1)c1ccc(O[C@@H]2O[C@H](CO)[C@@H](O)[C@H](O)[C@H]2O)c(O)c1O [Marein] (10 µM),0
13,Cc1cc2cc(Nc3ccnc(Nc4ccc5[nH]c(C)cc5c4)n3)ccc2[nH]1 (2.5 µM),0
14,Cc1cc(Nc2cc(Cl)nc(Oc3ccc([N+](=O)[O-])cc3)n2)n[nH]1 [Autophinib] (2.5 µM),0
15,Fc1ccc(-c2nc(-c3ccccc3F)[nH]c2-c2ccncc2)cc1 (2.5 µM),0
16,OC(COc1ccc(C(F)(F)F)cc1)CN(Cc1ccccc1)Cc1ccccc1 (centres undefined) (2.5 µM),0
17,COc1ccc2[nH]cc(/C=C3\C(=O)Nc4ccc(NC(=O)CCN5CCCCC5)cc43)c2c1 (2.5 µM),0
18,CS(=O)(=O)c1ccc(-c2noc(C(F)(F)F)c2-c2ccccc2)cc1 (10 µM),0
19,COCCO[C@@H]1[C@H](O)[C@@H](CO)O[C@H]1n1cnc2c(=O)[nH]c(N)nc21 [2′-O-(2-Methoxyethyl)guanosine] (10 µM),0
20,Cn1cnc(-c2cc3nccc(Oc4ccc(NC(=S)NC(=O)Cc5ccccc5)cc4F)c3s2)c1 [MGCD-265 analog] (10 µM),3

row,Structure (SMILES),number of time points
1,Cc1noc(C)c1-c1ccc(-c2cc(C(N)=O)c(NC(N)=O)s2)c(O[C@H]2CCNC2)c1 (10 µM),0
2,Cc1c(CN2CCN(S(C)(=O)=O)CC2)sc2c(N3CCOCC3)nc(-c3cnc(N)nc3)nc12 (2.5 µM),0
3,CC(C)CN(CC(=O)N1CCN(CC(OCc2ccc3ccccc3c2)c2ccc(Cl)cc2Cl)CC1)CC(C)C (centres undefined) [LYN-1604 (dihydrochloride)] (2.5 µM),0
4,CC/C=C\C/C=C\C/C=C\CCCCCCCC(=O)O [α-Linolenic acid] (10 µM),0
5,Nc1ncnc2c1c(-c1ccc(Oc3ccccc3)cc1)nn2C1CCNCC1 [N-piperidine Ibrutinib (hydrochloride)] (10 µM),0
6,CC(C)NC(=O)N1CC[C@H](NC2=Nc3cc(F)ccc3N(CC(F)F)c3ccc(Cl)cc32)C1 (10 µM),0
7,O=C(Nc1cc(Oc2cc(F)c(NC(=O)C3(C(=O)Nc4ccc(F)cc4)CC3)cc2F)ccn1)C1CC1 [Altiratinib] (10 µM),0
8,COCCOc1ccc(-c2cn(-c3ccccc3)c3nc[nH]c(=O)c23)cc1 (10 µM),0
9,Cc1ccc2nc(NC(=O)CSc3nc4c(c(=O)n3-c3ccccc3)SCC4)sc2c1 (2 µM),0
10,C[C@]1(O)CCC[C@@H]1n1c(=O)c(C(F)F)cc2cnc(NC3CCN(S(C)(=O)=O)CC3)nc21 (10 µM),0
11,NC1(Cc2ccc(Cl)cc2)CCN(c2ncnc3[nH]ccc23)CC1 (10 µM),0
12,"O=C(O)c1cc(O)ccc1O [2,5-Dihydroxybenzoic acid] (10 µM)",0
13,C=C(CCC=C(C)C)[C@H]1CC[C@]2(C)[C@@H]1[C@H](O)C[C@@H]1[C@@]3(C)CC[C@H](O[C@@H]4O[C@H](CO)[C@@H](O)[C@H](O)[C@H]4O[C@@H]4O[C@H](CO)[C@@H](O)[C@H](O)[C@H]4O)C(C)(C)[C@@H]3CC[C@]12C [Ginsenoside Rk1] (10 µM),0
14,CC(C)=CC[C@H](O)C1=CC(=O)c2c(O)ccc(O)c2C1=O [(-)-Alkannin] (2.5 µM),0
15,N#Cc1c(-c2ccccc2)cc(-c2cc(Br)ccc2O)[nH]c1=O (10 µM),0
16,CCn1c(-c2nonc2N)nc2cnc(Oc3cccc(NC(=O)c4ccc(OCCN5CCOCC5)cc4)c3)cc21 (10 µM),0
17,CO[C@H]1C[C@@H]2CC[C@@H](C)[C@@](O)(O2)C(=O)C(=O)N2CCCC[C@H]2C(=O)O[C@H]([C@H](C)C[C@@H]2CC[C@@H](O)[C@H](OC)C2)CC(=O)[C@H](C)/C=C(\C)[C@@H](O)[C@@H](OC)C(=O)[C@H](C)C[C@H](C)/C=C/C=C/C=C/1C [Rapamycin] (10 µM),0
18,CC(C)=CCC[C@](C)(O[C@@H]1O[C@H](CO)[C@@H](O)[C@H](O)[C@H]1O)[C@H]1CC[C@]2(C)[C@@H]1[C@H](O)C[C@@H]1[C@@]3(C)CC[C@H](O)C(C)(C)[C@@H]3[C@@H](O[C@@H]3O[C@H](CO)[C@@H](O)[C@H](O)[C@H]3O[C@@H]3O[C@@H](C)[C@H](O)[C@@H](O)[C@H]3O)C[C@]12C [Ginsenoside Re] (10 µM),0
19,Cn1c(=O)c(F)c(Nc2ccc(I)cc2F)c2c(=O)n(C[C@@H](O)CO)cnc21 (10 µM),0

# Given tab-delimited: part of the list above
row	Structure (SMILES)	number of time points
6	CNC(=O)c1ccc(-c2cnc3cnc(C(=O)N(C)c4ccc(Cl)cc4)cn23)cc1 (2.5 µM)	0
17	COc1ccc2[nH]cc(/C=C3\C(=O)Nc4ccc(NC(=O)CCN5CCCCC5)cc43)c2c1 (2.5 µM)	0
4	CC/C=C\C/C=C\C/C=C\CCCCCCCC(=O)O [α-Linolenic acid] (10 µM)	0
7	O=C(Nc1cc(Oc2cc(F)c(NC(=O)C3(C(=O)Nc4ccc(F)cc4)CC3)cc2F)ccn1)C1CC1 [Altiratinib] (10 µM)	0
10	C[C@]1(O)CCC[C@@H]1n1c(=O)c(C(F)F)cc2cnc(NC3CCN(S(C)(=O)=O)CC3)nc21 (10 µM)	0
15	N#Cc1c(-c2ccccc2)cc(-c2cc(Br)ccc2O)[nH]c1=O (10 µM)	0
17	CO[C@H]1C[C@@H]2CC[C@@H](C)[C@@](O)(O2)C(=O)C(=O)N2CCCC[C@H]2C(=O)O[C@H]([C@H](C)C[C@@H]2CC[C@@H](O)[C@H](OC)C2)CC(=O)[C@H](C)/C=C(\C)[C@@H](O)[C@@H](OC)C(=O)[C@H](C)C[C@H](C)/C=C/C=C/C=C/1C [Rapamycin] (10 µM)	0
